Results published in article PMC6441110, “A novel 3-hydroxypropionic acid-inducible promoter regulated by the LysR-type transcriptional activator protein MmsR of Pseudomonas denitrificans” (Scientific Reports, 2019).
Construct, isoform or probe ends are uncertain for at least one entry. No signal at the amounts used counts as a negative. Tags and fusion partners may be left off the protein sequences shown. The comparison behind a weaker result is the experiment's own reference, which may not be listed here.

Molecular target: T1, MmsR (LysR-type transcriptional activator, C4-LysR) (Pseudomonas denitrificans ATCC 13867) (UniProt A0A9X7MYS1)
T1 sequence (looked up, limits assumed): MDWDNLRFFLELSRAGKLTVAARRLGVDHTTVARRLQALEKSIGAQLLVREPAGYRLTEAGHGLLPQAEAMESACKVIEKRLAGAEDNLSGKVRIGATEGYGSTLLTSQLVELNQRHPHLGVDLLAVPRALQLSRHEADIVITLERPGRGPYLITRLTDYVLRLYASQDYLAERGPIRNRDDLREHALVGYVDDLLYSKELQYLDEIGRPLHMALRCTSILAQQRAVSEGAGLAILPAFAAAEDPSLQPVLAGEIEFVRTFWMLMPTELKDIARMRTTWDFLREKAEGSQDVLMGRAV
Test: EMSA
Conditions: 50 mM Tris pH 7.4, 0.5 mM DTT, 0.5 mM EDTA, room temperature, EMSA 40 nM DNA, 0-48.5 nM MmsR, 30 min, footprinting 230 nM DNA, 0-1.2 uM MmsR, recombinant protein, protein details: C-terminal His6 (pET30b+), label: none (SYBR Green stain)

Sequence	binding result (25 mM 3-HP (binding greatly reduced))	binding result (no 3-HP)	binding result (no shift up to 72.7 nM MmsR, 3-HP state not specified)
GTCAGCCTCAGCGCACCTCGATCCTTGCTAAACGCAGACCATACCGCCCAGGCACCGCATTGAGTACATCAAAAATGCACTGTTAGGATCGATCCAGACAACAAAAAAGCCACAGGCTGGGAGAATCCCG (double strand) [F1M2 (O1 mutant, O2 intact)]	binds more weakly	binds more weakly	–
GTCAGCCTCAGCGCACCTCGATCCTTGCTAAACGCAGACCATACCGCCCAGGCACCGCATTGAGTACATCAATCCTTGCTTGTTAGGATCGCGCCCAGGCACAAAAAAGCCACAGGCTGGGAGAATCCCG (double strand) [F1M2M (O1 and O2 mutant)]	–	–	no binding
